The source gives many values for each of these; only a part stands here.
Experiments:
Assay type in all cases: in vivo, human
RA patients [1] = experiment: Total cholesterol determination, Study 2 (RA patients, monotherapy with Compound 1)
Description: (§1) Randomized, double-blind, placebo-controlled, multicenter, phase IIb dose finding study of Compound 1 (dosed as a [Compound 1:HCl:3H2O]) administered for 24 weeks as monotherapy to subjects with moderately to severely active rheumatoid arthritis who have an inadequate response to methotrexate alone
(§2) Double-blind, placebo-controlled, monotherapy study in subjects with moderately to severely active RA who have an inadequate response to methotrexate (MTX) (oral or parenteral).
(§3) 280 subjects randomized to one of 3 doses of Compound 1 (dosed as a [Compound 1:HCl:3H2O]) or to placebo, given once daily (q.d.).
(§4) Twelve weeks of treatment with Compound 1 (dosed as a [Compound 1:HCl:3H2O]) at 50 mg, 100 mg, or 200 mg q.d.; or placebo. At Week 12, all subjects on placebo and the subjects on the 50 mg dose who have not achieved 20% improvement in swollen joint count (SJC66) and tender joint count (TJC68) will be assigned to 100 mg q.d. in a blinded fashion and will continue treatment until Week 24. Subjects in the other groups will maintain their randomized treatment until Week 24.
This method is based on the determination of Δ^4 cholestenone after enzymatic cleavage of the cholesterol ester by cholesterol esterase, conversion of cholesterol by cholesterol oxidase, and subsequent measurement by the Trinder reaction of the hydrogen peroxide formed (Allain et al., 1974).
Cholesterol esters are cleaved by the action of cholesterol esterase to yield free cholesterol and fatty acids. Cholesterol oxidase then catalyzes the oxidation of cholesterol to cholest-4-en-3-one and hydrogen peroxide. In the presence of peroxidase, the hydrogen peroxide formed effects the oxidative coupling of phenol and 4-aminophenazone to form a red quinone-imine dye. The color intensity of the dye formed is directly proportional to the cholesterol concentration. It is determined by measuring the increase in absorbance.
Human serum and plasma samples cholesterol determination was done on a Roche/Hitachi Cobas c 701/702 system which automatically calculate the analyte concentration of each sample.

RA patients [2] = experiment: [HDL] determination, Study 2 (RA patients, monotherapy); conditions: 50 mg q.d. non responders switching to 100 mg q.d. at week 12
Description: as §1, §2, §3, §4
This assay relies on a homogeneous enzymatic colorimetric test. In the presence of magnesium ions, dextran sulfate selectively forms water-soluble complexes with LDL, VLDL and chylomicrons which are resistant to PEG-modified enzymes.
The cholesterol concentration of [HDL]-cholesterol is determined enzymatically by cholesterol esterase and cholesterol oxidase coupled with PEG to the amino groups (approx. 40%).
In the presence of peroxidase, the hydrogen peroxide generated reacts with 4-amino-antipyrine and Sodium N-(2-hydroxy-3-sulfopropyl)-3,5-dimethoxyaniline (HSDA) to form a purple-blue dye. The color intensity of this dye is directly proportional to the cholesterol concentration and is measured photometrically.
Human serum and plasma samples [HDL] determination was done on a Roche/Hitachi Cobas c 701/702 system which automatically calculate the analyte concentration of each sample. Samples containing precipitates are centrifuged before performing the assay.

RA patients [3] = experiment: Atherogenic index, Study 1 (RA patients, add-on to MTX)
Description: As used herein, the term ‘atherogenic index’ refers to
Double-blind, placebo-controlled add on study in subjects with moderately to severely active RA who have an inadequate response to methotrexate (MTX) (oral or parenteral).
Compound 1 (dosed as a [Compound 1:HCl:3H2O]) is dosed for twelve weeks once daily (q.d.) (50 mg, 100 mg or 200 mg) or twice daily (b.i.d.) (25 mg, 50 mg or 100 mg); or placebo.
At Week 12, the subjects on placebo who have not achieved 20% improvement in swollen joint count (SJC66) and tender joint count (TJC68) are re-randomized automatically to receive Compound 1 (dosed as a [Compound 1:HCl:3H2O]) either at 100 mg q.d. or 50 mg b.i.d. doses in a blinded fashion; subjects on 50 mg q.d. who have not achieved 20% improvement in SJC66 and TJC68 will be assigned to 100 mg q.d. and subjects on 25 mg b.i.d. that have not achieved a 20% improvement in SJC66 and TJC68 will be assigned to 50 mg b.i.d. Subjects who switch treatment at week 12 are handled as if they discontinued at week 12 for the purpose of statistical analysis, whereas subjects in the other groups will maintain their randomized treatment until Week 24.
The atherogenic index has been identified to be a good predictor of cardiovascular disorders risks and is calculated as follows: […]

Structure (SMILES): O=C(Nc1nc2cccc(-c3ccc(CN4CCS(=O)(=O)CC4)cc3)n2n1)C1CC1 [Compound 1, cyclopropanecarboxylic acid {5-[4-(1,1-dioxo-thiomorpholin-4-ylmethyl)-phenyl]-[1,2,4]triazolo[1,5-a]pyridin-2yl}-amide]
- [Total cholesterol] Mean CFB (RA patients [1]; Study 2 12 weeks results, 50 mg q.d., week 1): 0.058 mmol/L
- [Total cholesterol] Mean CFB (RA patients [1]; Study 2 12 weeks results, 50 mg q.d., week 2): -0.021 mmol/L
- [Total cholesterol] Mean CFB (RA patients [1]; Study 2 12 weeks results, 50 mg q.d., week 4): 0.113 mmol/L
- [Total cholesterol] Mean CFB (RA patients [1]; Study 2 12 weeks results, 50 mg q.d., week 8): 0.252 mmol/L
- [Total cholesterol] Mean CFB (RA patients [1]; Study 2 12 weeks results, 50 mg q.d., week 12): 0.184 mmol/L
- [Total cholesterol] Mean CFB (RA patients [1]; Study 2 12 weeks results, 100 mg q.d., week 1): 0.191 mmol/L
- [Total cholesterol] Mean CFB (RA patients [1]; Study 2 12 weeks results, 100 mg q.d., week 2): 0.214 mmol/L
- [Total cholesterol] Mean CFB (RA patients [1]; Study 2 12 weeks results, 100 mg q.d., week 4): 0.369 mmol/L
- [Total cholesterol] Mean CFB (RA patients [1]; Study 2 12 weeks results, 100 mg q.d., week 8): 0.335 mmol/L
- [Total cholesterol] Mean CFB (RA patients [1]; Study 2 12 weeks results, 100 mg q.d., week 12): 0.517 mmol/L
- [Total cholesterol] Mean CFB (RA patients [1]; Study 2 12 weeks results, 200 mg q.d., week 1): 0.279 mmol/L
- [Total cholesterol] Mean CFB (RA patients [1]; Study 2 12 weeks results, 200 mg q.d., week 2): 0.375 mmol/L
- [Total cholesterol] Mean CFB (RA patients [1]; Study 2 12 weeks results, 200 mg q.d., week 4): 0.418 mmol/L
- [Total cholesterol] Mean CFB (RA patients [1]; Study 2 12 weeks results, 200 mg q.d., week 8): 0.460 mmol/L
- [Total cholesterol] Mean CFB (RA patients [1]; Study 2 12 weeks results, 200 mg q.d., week 12): 0.581 mmol/L
- [Total cholesterol] Mean CFB (RA patients [1]; Study 2 24 weeks results, 50 mg q.d. non responders switching to 100 mg q.d. at week 12, week 1): 0.264 mmol/L
- [Total cholesterol] Mean CFB (RA patients [1]; Study 2 24 weeks results, 50 mg q.d. non responders switching to 100 mg q.d. at week 12, week 2): 0.165 mmol/L
- [Total cholesterol] Mean CFB (RA patients [1]; Study 2 24 weeks results, 50 mg q.d. non responders switching to 100 mg q.d. at week 12, week 4): 0.359 mmol/L
- [Total cholesterol] Mean CFB (RA patients [1]; Study 2 24 weeks results, 50 mg q.d. non responders switching to 100 mg q.d. at week 12, week 8): 0.237 mmol/L
- [Total cholesterol] Mean CFB (RA patients [1]; Study 2 24 weeks results, 50 mg q.d. non responders switching to 100 mg q.d. at week 12, week 12): 0.253 mmol/L
- [Total cholesterol] Mean CFB (RA patients [1]; Study 2 24 weeks results, 50 mg q.d. non responders switching to 100 mg q.d. at week 12, week 16): 0.454 mmol/L
- [Total cholesterol] Mean CFB (RA patients [1]; Study 2 24 weeks results, 50 mg q.d. non responders switching to 100 mg q.d. at week 12, week 20): 0.395 mmol/L
- [Total cholesterol] Mean CFB (RA patients [1]; Study 2 24 weeks results, 50 mg q.d. non responders switching to 100 mg q.d. at week 12, week 24): 0.532 mmol/L
- [Total cholesterol] Mean CFB (RA patients [1]; Study 2 24 weeks results, 50 mg q.d. responders, week 1): 0.003 mmol/L
- [Total cholesterol] Mean CFB (RA patients [1]; Study 2 24 weeks results, 50 mg q.d. responders, week 2): -0.071 mmol/L
- [Total cholesterol] Mean CFB (RA patients [1]; Study 2 24 weeks results, 50 mg q.d. responders, week 4): 0.047 mmol/L
- [Total cholesterol] Mean CFB (RA patients [1]; Study 2 24 weeks results, 50 mg q.d. responders, week 8): 0.257 mmol/L
- [Total cholesterol] Mean CFB (RA patients [1]; Study 2 24 weeks results, 50 mg q.d. responders, week 12): 0.165 mmol/L
- [Total cholesterol] Mean CFB (RA patients [1]; Study 2 24 weeks results, 50 mg q.d. responders, week 16): 0.267 mmol/L
- [Total cholesterol] Mean CFB (RA patients [1]; Study 2 24 weeks results, 50 mg q.d. responders, week 20): 0.089 mmol/L
- [Total cholesterol] Mean CFB (RA patients [1]; Study 2 24 weeks results, 50 mg q.d. responders, week 24): 0.117 mmol/L
- [Total cholesterol] Mean CFB (RA patients [1]; Study 2 24 weeks results, 100 mg q.d., week 1): 0.191 mmol/L
- [Total cholesterol] Mean CFB (RA patients [1]; Study 2 24 weeks results, 100 mg q.d., week 2): 0.214 mmol/L
- [Total cholesterol] Mean CFB (RA patients [1]; Study 2 24 weeks results, 100 mg q.d., week 4): 0.369 mmol/L
- [Total cholesterol] Mean CFB (RA patients [1]; Study 2 24 weeks results, 100 mg q.d., week 8): 0.335 mmol/L
- [Total cholesterol] Mean CFB (RA patients [1]; Study 2 24 weeks results, 100 mg q.d., week 12): 0.517 mmol/L
- [Total cholesterol] Mean CFB (RA patients [1]; Study 2 24 weeks results, 100 mg q.d., week 16): 0.505 mmol/L
- [Total cholesterol] Mean CFB (RA patients [1]; Study 2 24 weeks results, 100 mg q.d., week 20): 0.439 mmol/L
- [Total cholesterol] Mean CFB (RA patients [1]; Study 2 24 weeks results, 100 mg q.d., week 24): 0.529 mmol/L
- [Total cholesterol] Mean CFB (RA patients [1]; Study 2 24 weeks results, 200 mg q.d., week 1): 0.279 mmol/L
- [Total cholesterol] Mean CFB (RA patients [1]; Study 2 24 weeks results, 200 mg q.d., week 2): 0.375 mmol/L
- [Total cholesterol] Mean CFB (RA patients [1]; Study 2 24 weeks results, 200 mg q.d., week 4): 0.418 mmol/L
- [Total cholesterol] Mean CFB (RA patients [1]; Study 2 24 weeks results, 200 mg q.d., week 8): 0.460 mmol/L
- [Total cholesterol] Mean CFB (RA patients [1]; Study 2 24 weeks results, 200 mg q.d., week 12): 0.581 mmol/L
- [Total cholesterol] Mean CFB (RA patients [1]; Study 2 24 weeks results, 200 mg q.d., week 16): 0.517 mmol/L
- [Total cholesterol] Mean CFB (RA patients [1]; Study 2 24 weeks results, 200 mg q.d., week 20): 0.504 mmol/L
- [Total cholesterol] Mean CFB (RA patients [1]; Study 2 24 weeks results, 200 mg q.d., week 24): 0.581 mmol/L
- [Total cholesterol] Mean CFB (RA patients [1]; Study 2 24 weeks results, placebo switching to 100 mg q.d. at week 12, week 16): 0.241 mmol/L
- [Total cholesterol] Mean CFB (RA patients [1]; Study 2 24 weeks results, placebo switching to 100 mg q.d. at week 12, week 20): 0.340 mmol/L
- [Total cholesterol] Mean CFB (RA patients [1]; Study 2 24 weeks results, placebo switching to 100 mg q.d. at week 12, week 24): 0.317 mmol/L
- [HDL] Mean percentage CFB - 24 weeks results (RA patients [2]; week 12): 10.42%
- [HDL] Mean percentage CFB - 24 weeks results (RA patients [2]; week 16): 14.57%
- [HDL] Mean percentage CFB - 24 weeks results (RA patients [2]; week 20): 16.39%
- [HDL] Mean percentage CFB - 24 weeks results (RA patients [2]; week 24): 20.96%
- Atherogenic index Median CFB - 24 weeks results (RA patients [3]; Placebo switched to 100 mg q.d. at week 12, week 16): 0.00 mmol/L
- Atherogenic index Median CFB - 24 weeks results (RA patients [3]; Placebo switched to 100 mg q.d. at week 12, week 20): -0.10 mmol/L
- Atherogenic index Median CFB - 24 weeks results (RA patients [3]; Placebo switched to 100 mg q.d. at week 12, week 24): -0.20 mmol/L
- Atherogenic index Median CFB - 24 weeks results (RA patients [3]; increased from 25 mg b.i.d. to 50 mg b.i.d at 12 weeks, week 16): -0.30 mmol/L
- Atherogenic index Median CFB - 24 weeks results (RA patients [3]; increased from 25 mg b.i.d. to 50 mg b.i.d at 12 weeks, week 20): -0.30 mmol/L

Reference: patent US10376520B2, “Methods for the treatment of cardiovascular disorders” (Galapagos NV, priority 2015, dated 2019)
